Measured data: PubChem BioAssay AID1259254 (NCATS, 2017)
Purpose: 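Gene knock-downs that lead to re-replication, shown by excess G2 DNA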 (primary screen). Cells: human HCT116 colorectal cancer cells. Reagent: single siRNA against human genes. Time to read-out: 3 days. Measurement: 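Imaged Hoechst DNA stain sorts each cell into a cycle phase by DNA amount; per plate, G2 fraction set to 0% for non-targeting and 100% for GMNN siRNA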. Reading the numbers: G2 robust z-score: higher = more G2 cells, more excess DNA replication. Active means: 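An siRNA counts as active if its G2 robust z-score lies at least 5 MADs above the screen median; here such calls match roughly 38% of GMNN control or more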.
This is a random part of about 59,000 reagents. About 1,550 of them (2.6%) were called active. 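G2 share is only a proxy for re-replication; each gene was hit by three separate siRNAs, and active genes were retested.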 Entries without a mark were called inactive. Reagents against one gene are numbered here. Further read-outs or replicates are left out here. Not stated in the record: the amount of reagent.

For CCDC77 (coiled-coil domain containing 77) #1, how do the results read?
G2 robust z-score: -0.431

What did the screen give for CCDC77 (coiled-coil domain containing 77) #2?
G2 robust z-score: -0.989

How did the screen score CCDC77 (coiled-coil domain containing 77) #3?
G2 robust z-score: -0.395

What did the screen give for OAT (ornithine aminotransferase) #1?
G2 robust z-score: 2.12

How did the screen score OAT (ornithine aminotransferase) #2?
G2 robust z-score: 3.07

With OAT (ornithine aminotransferase) #3, how do the results read?
G2 robust z-score: -0.84

A portion from the list above:
CCDC77 (coiled-coil domain containing 77) #2 → G2 robust z-score = -0.989
CCDC77 (coiled-coil domain containing 77) #3 → G2 robust z-score = -0.395

Next results:
For BAZ2A (bromodomain adjacent to zinc finger domain 2A) #1, what does the deposit list?
G2 robust z-score: -0.658

For BAZ2A (bromodomain adjacent to zinc finger domain 2A) #2, what does the deposit list?
G2 robust z-score: 0.681

What is on record for BAZ2A (bromodomain adjacent to zinc finger domain 2A) #3?
G2 robust z-score: -1.03

What is on record for OXGR1 (oxoglutarate receptor 1) #1?
G2 robust z-score: -1.06

For OXGR1 (oxoglutarate receptor 1) #2, what does the deposit list?
G2 robust z-score: 1.24

What did the screen give for OXGR1 (oxoglutarate receptor 1) #3?
G2 robust z-score: 1.57
